No constants are given. Whether binding was seen depends on the method and setting. For some assays here: In cells and extracts the contact can be indirect. Some results given as binding are weak or reduced against the parent protein; the word gives no strength. For some assays here: Tags and fused reporters may be left off the sequences shown.
T1: recombinant active caspase-3 (PharMingen) (UniProt P42574)
T1 sequence (looked up): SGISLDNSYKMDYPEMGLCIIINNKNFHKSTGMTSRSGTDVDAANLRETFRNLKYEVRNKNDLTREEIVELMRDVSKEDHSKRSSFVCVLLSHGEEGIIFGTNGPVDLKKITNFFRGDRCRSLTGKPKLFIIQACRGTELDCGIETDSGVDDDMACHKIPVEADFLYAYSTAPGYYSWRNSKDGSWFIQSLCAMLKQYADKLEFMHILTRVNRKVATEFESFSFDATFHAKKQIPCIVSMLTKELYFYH

Chains of the proteins cited; added tags and fusions are not shown.
UniProt P55211: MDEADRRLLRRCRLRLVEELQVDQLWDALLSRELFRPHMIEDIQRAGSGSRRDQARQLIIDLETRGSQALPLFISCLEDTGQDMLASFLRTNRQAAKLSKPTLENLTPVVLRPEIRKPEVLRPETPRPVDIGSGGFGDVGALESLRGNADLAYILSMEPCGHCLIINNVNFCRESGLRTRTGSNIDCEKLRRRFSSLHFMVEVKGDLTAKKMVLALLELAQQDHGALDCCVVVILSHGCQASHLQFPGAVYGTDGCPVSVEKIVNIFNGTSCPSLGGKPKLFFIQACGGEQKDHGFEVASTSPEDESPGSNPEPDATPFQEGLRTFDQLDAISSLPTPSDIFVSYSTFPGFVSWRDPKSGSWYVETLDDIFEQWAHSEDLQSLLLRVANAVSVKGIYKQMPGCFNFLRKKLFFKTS


What was measured:
[1] = biological target: T1, recombinant active caspase-3 (PharMingen); test: in vitro binding, 35S-labeled livin with recombinant active caspase-3, immunoprecipitation with caspase-specific antibody, SDS-PAGE, autoradiography
[2] = biological target: unprocessed 45 kDa form of caspase-9 (UniProt P55211); test: co-immunoprecipitation from transfected HeLa cell lysates with anti-V5 antibody, Western blot for caspase-9

Row | binding [1] | binding [2] | Binder
1 | binds |  | livin (35[S]-methionine-labeled, wild-type, in vitro translated) (protein, 35[S]-methionine-labeled) MGPKDSAKCLHRGPQPSHWAAGDGPTQERCGPRSLGSPVLGLDTCRAWDHVDGQILGQLRPLTEEEEEEGAGATLSRGPAFPGMGSEELRLASFYDWPLTAEVPPELLAAAGFFHTGHQDKVRCFFCYGGLQSWKRGDDPWTEHAKWFPSCQFLLRSKGRDFVHSVQETHSQLLGSWDPWEEPEDAAPVAPSVPASGYPELPTPRREVQSESAQEPGARDVEAQLRRLQEERTCKVCLDRAVSIVFVPCGHLVCAECAPGLQLCPICRAPVRSRVRTFLS
2 |  | binds | livin expressed from pcDNA3.1/V5/His-TOPO-livin in transfected HeLa cells (protein, not shown: small tags and cut ends) MGPKDSAKCLHRGPQPSHWAAGDGPTQERCGPRSLGSPVLGLDTCRAWDHVDGQILGQLRPLTEEEEEEGAGATLSRGPAFPGMGSEELRLASFYDWPLTAEVPPELLAAAGFFHTGHQDKVRCFFCYGGLQSWKRGDDPWTEHAKWFPSCQFLLRSKGRDFVHSVQETHSQLLGSWDPWEEPEDAAPVAPSVPASGYPELPTPRREVQSESAQEPGARDVEAQLRRLQEERTCKVCLDRAVSIVFVPCGHLVCAECAPGLQLCPICRAPVRSRVRTFLS
